At least one structure is not confirmed: it was looked up by name or label, or the drawing left a doubt.
How the values were obtained:
[1] = test system: β-glucosidase from almonds; test: Glycosidase activity assay: β-glucosidase; assay type: biochemical; details: inhibitors tested at 100 μM
β-mannosidase from Helix = test: Glycosidase activity assay: β-mannosidase; assay type: biochemical; details: inhibitors tested at 100 μM

For `O=C(CCCCC1CCCCC1)NC[C@H]1N[C@H](CO)[C@H](O)[C@@H]1O` [Compound 33], the “Inhibition activity (%) β-glucosidase” value [1] was “No inhibition” and the “Inhibition activity (%) β-mannosidase” value (β-mannosidase from Helix) was “No inhibition”.

From US10995067B2, “Treatment of Fabry disease” (Academia Sinica, priority 2016, dated 2021)
